Measured values: publication PMC9570040
These are yes or no findings as the source states them, for the method shown. In cells and extracts the contact can be indirect. Some entries that bind do so weakly or less than the wild type.

The chains behind the UniProt entries cited, without tags or fusion partners.
UniProt Q9UPY5: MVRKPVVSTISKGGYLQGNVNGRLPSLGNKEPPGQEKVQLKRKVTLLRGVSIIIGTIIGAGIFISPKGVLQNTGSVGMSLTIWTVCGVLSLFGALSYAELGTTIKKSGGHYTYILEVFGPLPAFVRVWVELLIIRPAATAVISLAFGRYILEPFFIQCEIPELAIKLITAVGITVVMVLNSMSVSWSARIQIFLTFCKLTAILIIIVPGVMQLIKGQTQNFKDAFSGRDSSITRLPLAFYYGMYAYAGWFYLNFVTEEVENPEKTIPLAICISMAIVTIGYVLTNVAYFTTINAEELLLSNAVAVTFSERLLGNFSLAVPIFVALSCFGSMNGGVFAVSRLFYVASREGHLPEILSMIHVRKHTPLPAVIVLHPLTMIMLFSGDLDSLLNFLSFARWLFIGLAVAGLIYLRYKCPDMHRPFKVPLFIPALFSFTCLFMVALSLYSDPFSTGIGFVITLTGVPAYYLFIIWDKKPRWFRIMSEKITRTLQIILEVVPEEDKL
UniProt Q14457: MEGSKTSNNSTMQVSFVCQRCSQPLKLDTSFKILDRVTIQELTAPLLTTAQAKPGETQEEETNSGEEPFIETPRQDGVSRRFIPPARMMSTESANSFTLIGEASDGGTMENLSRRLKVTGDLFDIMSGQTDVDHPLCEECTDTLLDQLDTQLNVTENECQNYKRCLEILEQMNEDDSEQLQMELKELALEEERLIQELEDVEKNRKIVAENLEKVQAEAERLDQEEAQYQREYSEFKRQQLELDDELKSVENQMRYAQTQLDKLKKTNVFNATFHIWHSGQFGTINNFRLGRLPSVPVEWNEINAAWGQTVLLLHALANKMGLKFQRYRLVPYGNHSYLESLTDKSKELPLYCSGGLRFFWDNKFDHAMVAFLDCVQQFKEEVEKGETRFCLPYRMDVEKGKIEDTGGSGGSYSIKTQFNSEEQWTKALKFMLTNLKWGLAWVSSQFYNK

Legend:
[1] = target: solute carrier family 7 member 11 (human (endogenous in Huh7 and Hep3B)) (UniProt Q9UPY5); experiment: co-IP; endogenous proteins; Huh7 lysate (IP buffer: 1 mM EDTA, 50 mM Tris-HCl pH 7.4, 120 mM NaCl, 1% NP-40, 0.25% sodium deoxycholate) precipitated with anti-MCL1 or anti-SLC7A11 and protein A agarose, 4 °C; Western blot; cells with or without 2.5 µM sorafenib for 16 h
[2] = target: solute carrier family 7 member 11 (human (endogenous in Huh7 and Hep3B)) (UniProt Q9UPY5); experiment: co-IP; cells with ectopic expression of MCL1 (pCMV6-MCL1-Myc-DDK) or without, 2.5 µM sorafenib for 16 h; cell line and precipitating antibody not named in the legend
[3] = target: beclin 1 (human (endogenous in Huh7 and Hep3B)) (UniProt Q14457); experiment: co-IP; endogenous proteins; Hep3B lysate precipitated with anti-BECN1 and protein A agarose, 4 °C; Western blot; cells with or without 5 µM sorafenib for 16 h

binding [1]	binding [2]	binding [3]	Substance
binds	binds	–	beclin 1 (from UniProt Q14457 1-450)
–	–	no binding	solute carrier family 3 member 2 (from UniProt P08195 1-529)
